PubChem BioAssay AID686938, Drosophila RNAi Screening Center – 2013
The screen tested about 23,000 reagents; below is a random part of those with a known target gene and a result. Of all reagents, 75 (0.33%) got an active call. 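Raw plate signals without normalisation; calls rest on plate z-scores that were not deposited; ratio present for only 364 wells.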 Entries without a mark were called inactive. Not stated in the record: the dose of the treatment.

Aim: 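Looking for CRAC channel components and the factors controlling them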 (primary screen)
System: Drosophila S2R+ cells
Reagent: long dsRNA against Drosophila genes, about 0.25 µg dsRNA per well, roughly 10,000 cells
Duration: 5 days of knock-down before the calcium assay
Challenge: thapsigargin (SERCA pump blocker) to empty calcium stores; entry signal taken 4 min after adding it
Detection: 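Duplicate raw fluo-4 intensities per well from a plate reader, at rest and four minutes after thapsigargin emptied calcium stores; entry-to-rest ratio filled for only some wells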
Reading the numbers: calcium entry signal: higher = stronger calcium signal after store depletion; resting calcium signal: higher = higher resting calcium signal
Hit rule: 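Called when the plate z-score of the entry-to-rest ratio, mean of duplicates, falls below −3; wells with low overall dye signal (Fmax z below −2) or more than five off-targets excluded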
Calls: active = strongly reduced calcium entry; inactive = no strong reduction

After knock-down of sm [DRSC05795], the record shows calcium entry signal, replicate 1 (fluorescence units) = 2.35e7; calcium entry signal, replicate 2 (fluorescence units) = 4.26e7; resting calcium signal, replicate 1 (fluorescence units) = 1.22e7; resting calcium signal, replicate 2 (fluorescence units) = 1.78e7.
sm [DRSC07686] showed calcium entry signal, replicate 1 (fluorescence units) = 3.25e7; calcium entry signal, replicate 2 (fluorescence units) = 2.82e7; resting calcium signal, replicate 1 (fluorescence units) = 1.53e7; resting calcium signal, replicate 2 (fluorescence units) = 1.44e7.
Cyp4p2 [DRSC07373] gave calcium entry signal, replicate 1 (fluorescence units) = 2.39e7; calcium entry signal, replicate 2 (fluorescence units) = 2.12e7; resting calcium signal, replicate 1 (fluorescence units) = 9.89e6; resting calcium signal, replicate 2 (fluorescence units) = 1.04e7.
fwe [DRSC09398] gave calcium entry signal, replicate 1 (fluorescence units) = 3.67e7; calcium entry signal, replicate 2 (fluorescence units) = 2.84e7; resting calcium signal, replicate 1 (fluorescence units) = 1.73e7; resting calcium signal, replicate 2 (fluorescence units) = 1.42e7.
For fwe [DRSC10594] the deposit lists calcium entry signal, replicate 1 (fluorescence units) = 4.73e7; calcium entry signal, replicate 2 (fluorescence units) = 5.84e7; resting calcium signal, replicate 1 (fluorescence units) = 2.10e7; resting calcium signal, replicate 2 (fluorescence units) = 3.77e7.
Silencing of fwe [DRSC21400] came out at: calcium entry signal, replicate 1 (fluorescence units) = 4.09e7; calcium entry signal, replicate 2 (fluorescence units) = 3.90e7; resting calcium signal, replicate 1 (fluorescence units) = 2.28e7; resting calcium signal, replicate 2 (fluorescence units) = 1.79e7.
Silencing of Nubpl [DRSC03725] resulted in: calcium entry signal, replicate 1 (fluorescence units) = 4.15e7; resting calcium signal, replicate 1 (fluorescence units) = 2.11e7.
For Dci [DRSC08360] the deposit lists calcium entry signal, replicate 1 (fluorescence units) = 4.37e7; calcium entry signal, replicate 2 (fluorescence units) = 3.56e7; resting calcium signal, replicate 1 (fluorescence units) = 2.54e7; resting calcium signal, replicate 2 (fluorescence units) = 1.66e7.
CG7970 [DRSC08605] showed calcium entry signal, replicate 1 (fluorescence units) = 3.89e7; calcium entry signal, replicate 2 (fluorescence units) = 3.45e7; resting calcium signal, replicate 1 (fluorescence units) = 1.62e7; resting calcium signal, replicate 2 (fluorescence units) = 1.69e7.
Cse1 [DRSC03287] gave calcium entry signal, replicate 1 (fluorescence units) = 1.92e7; calcium entry signal, replicate 2 (fluorescence units) = 3.30e7; resting calcium signal, replicate 1 (fluorescence units) = 1.49e7; resting calcium signal, replicate 2 (fluorescence units) = 1.66e7.
With knock-down of CG34056 [DRSC08374] the results were calcium entry signal, replicate 1 (fluorescence units) = 1.98e7; calcium entry signal, replicate 2 (fluorescence units) = 3.24e7; resting calcium signal, replicate 1 (fluorescence units) = 1.07e7; resting calcium signal, replicate 2 (fluorescence units) = 1.46e7.
ab [DRSC01162] scored calcium entry signal, replicate 1 (fluorescence units) = 3.27e7; calcium entry signal, replicate 2 (fluorescence units) = 3.46e7; resting calcium signal, replicate 1 (fluorescence units) = 1.73e7; resting calcium signal, replicate 2 (fluorescence units) = 1.70e7.
Knock-down of ab [DRSC03478] gave: calcium entry signal, replicate 1 (fluorescence units) = 3.74e7; calcium entry signal, replicate 2 (fluorescence units) = 2.80e7; resting calcium signal, replicate 1 (fluorescence units) = 2.13e7; resting calcium signal, replicate 2 (fluorescence units) = 1.61e7.
Knock-down of ab [DRSC23151] resulted in: calcium entry signal, replicate 1 (fluorescence units) = 3.01e7; calcium entry signal, replicate 2 (fluorescence units) = 3.25e7; resting calcium signal, replicate 1 (fluorescence units) = 1.62e7; resting calcium signal, replicate 2 (fluorescence units) = 1.51e7.
With knock-down of ab [DRSC23179] the results were calcium entry signal, replicate 1 (fluorescence units) = 3.33e7; calcium entry signal, replicate 2 (fluorescence units) = 3.38e7; resting calcium signal, replicate 1 (fluorescence units) = 1.77e7; resting calcium signal, replicate 2 (fluorescence units) = 1.49e7.

Entries listed so far whose gene name starts with F or f:
fwe [DRSC09398] | calcium entry signal, replicate 1 (fluorescence units): 3.67e7; calcium entry signal, replicate 2 (fluorescence units): 2.84e7; resting calcium signal, replicate 1 (fluorescence units): 1.73e7; resting calcium signal, replicate 2 (fluorescence units): 1.42e7
fwe [DRSC10594] | calcium entry signal, replicate 1 (fluorescence units): 4.73e7; calcium entry signal, replicate 2 (fluorescence units): 5.84e7; resting calcium signal, replicate 1 (fluorescence units): 2.10e7; resting calcium signal, replicate 2 (fluorescence units): 3.77e7
fwe [DRSC21400] | calcium entry signal, replicate 1 (fluorescence units): 4.09e7; calcium entry signal, replicate 2 (fluorescence units): 3.90e7; resting calcium signal, replicate 1 (fluorescence units): 2.28e7; resting calcium signal, replicate 2 (fluorescence units): 1.79e7
